Results deposited as PubChem BioAssay AID1159578 (Peter MacCallum Cancer Centre, 2015)

Assay: 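Genome-wide hunt for genes controlling movement of lymphatic endothelial cells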 (primary screen)
System: human lymphatic endothelial cells
Reagent: siRNA pool against human genes, 40 nM
Time to read-out: 48 h after transfection
Measured: 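Cells stained with dye and imaged after a scratch; covered wound area and nuclei counted, duplicates averaged, migration set against mock wells and turned into a robust z-score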
Scale: migration robust z-score: higher = faster migration into the scratch; migration relative to mock: higher = more scratch area covered than mock; nuclei per well: higher = more cells in the well
Active means: 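Migration changed when robust z exceeds 2 or falls below -2 and mean nuclei number is at least 3300; otherwise not called changed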
Meaning of the calls: active = migration changed; inactive = no migration change, or too few cells
Shown is a random part of about 18,000 reagents tested. In the full data, about 1,030 (5.7%) got an active call. 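Inactive calls also include pools with fewer than 3300 nuclei, whose migration was not assessed.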 Raw values are not corrected between plates.

The opening 5 entries as a preview:
| Target gene | migration robust z-score | migration class with cell-count check | migration relative to mock | nuclei per well, duplicate mean | activity call |
| --- | --- | --- | --- | --- | --- |
| IGF2-AS (GeneID 51214) | -0.08 | migration z between -2 and 2; enough cells | 0.86 | 5572 | inactive |
| OR10X1 (GeneID 128367) | 0.86 | migration z between -2 and 2; enough cells | 1.1 | 5326 | inactive |
| ZNF184 (GeneID 7738) | 0.18 | migration z between -2 and 2; enough cells | 0.93 | 4956 | inactive |
| QSOX1 (GeneID 5768) | -3.58 | under 3300 nuclei; migration not judged | 0.12 | 3128 | inactive |
| ADAM28 (GeneID 10863) | -0.29 | migration z between -2 and 2; enough cells | 0.75 | 5360 | inactive |

Results, from the start:
| Target gene | migration robust z-score | migration class with cell-count check | migration relative to mock | nuclei per well, duplicate mean | activity call |
| --- | --- | --- | --- | --- | --- |
| IGF2-AS (GeneID 51214) | -0.08 | migration z between -2 and 2; enough cells | 0.86 | 5572 | inactive |
| OR10X1 (GeneID 128367) | 0.86 | migration z between -2 and 2; enough cells | 1.1 | 5326 | inactive |
| ZNF184 (GeneID 7738) | 0.18 | migration z between -2 and 2; enough cells | 0.93 | 4956 | inactive |
| QSOX1 (GeneID 5768) | -3.58 | under 3300 nuclei; migration not judged | 0.12 | 3128 | inactive |
| ADAM28 (GeneID 10863) | -0.29 | migration z between -2 and 2; enough cells | 0.75 | 5360 | inactive |
| SLC8A2 (GeneID 6543) | -0.36 | migration z between -2 and 2; enough cells | 0.74 | 5948 | inactive |
| CCT5 (GeneID 22948) | -1.74 | migration z between -2 and 2; enough cells | 0.47 | 6059 | inactive |
| CCL2 (GeneID 6347) | -0.56 | migration z between -2 and 2; enough cells | 0.74 | 4798 | inactive |
| SMIM29 (GeneID 221491) | 0.68 | migration z between -2 and 2; enough cells | 1.06 | 5847 | inactive |
| NFASC (GeneID 23114) | 0.05 | migration z between -2 and 2; enough cells | 0.9 | 5832 | inactive |
| CSF2RB (GeneID 1439) | 1.82 | migration z between -2 and 2; enough cells | 1.15 | 6634 | inactive |
| CTNNBIP1 (GeneID 56998) | -0.47 | migration z between -2 and 2; enough cells | 0.76 | 6213 | inactive |
| NR2F2 (GeneID 7026) | 0.78 | migration z between -2 and 2; enough cells | 0.96 | 5537 | inactive |
| HEXIM1 (GeneID 10614) | 0.4 | migration z between -2 and 2; enough cells | 0.98 | 6040 | inactive |
| ACYP1 (GeneID 97) | -0.6 | migration z between -2 and 2; enough cells | 0.73 | 6750 | inactive |
| MIF4GD (GeneID 57409) | -0.82 | migration z between -2 and 2; enough cells | 0.67 | 6334 | inactive |
| P2RY1 (GeneID 5028) | 0.7 | migration z between -2 and 2; enough cells | 0.94 | 6456 | inactive |
| PLAGL1 (GeneID 5325) | -3.87 | under 3300 nuclei; migration not judged | 0.06 | 3295 | inactive |
| NDN (GeneID 4692) | -0.82 | migration z between -2 and 2; enough cells | 0.68 | 5744 | inactive |
| A4GALT (GeneID 53947) | 0.18 | migration z between -2 and 2; enough cells | 0.84 | 5046 | inactive |
| SPATA6L (GeneID 55064) | -0.7 | migration z between -2 and 2; enough cells | 0.71 | 4538 | inactive |
| DHX36 (GeneID 170506) | -0.47 | migration z between -2 and 2; enough cells | 0.72 | 3906 | inactive |
| ZNF622 (GeneID 90441) | -0.78 | migration z between -2 and 2; enough cells | 0.68 | 4860 | inactive |
| MAP4K3 (GeneID 8491) | 0.57 | migration z between -2 and 2; enough cells | 0.92 | 6844 | inactive |
| ITGAD (GeneID 3681) | 0.99 | migration z between -2 and 2; enough cells | 1.14 | 5806 | inactive |
| ZDHHC2 (GeneID 51201) | -0.35 | migration z between -2 and 2; enough cells | 0.79 | 5830 | inactive |
| RYK (GeneID 6259) | 0.24 | migration z between -2 and 2; enough cells | 0.85 | 5812 | inactive |
| FCSK (GeneID 197258) | -1.4 | migration z between -2 and 2; enough cells | 0.53 | 5651 | inactive |
| AKAP4 (GeneID 8852) | -0.64 | migration z between -2 and 2; enough cells | 0.72 | 7231 | inactive |
| TCTN2 (GeneID 79867) | 0.48 | migration z between -2 and 2; enough cells | 1.01 | 6393 | inactive |
| RBM4 (GeneID 5936) | 0.84 | migration z between -2 and 2; enough cells | 1.1 | 5800 | inactive |
| SYCP3 (GeneID 50511) | -0.05 | migration z between -2 and 2; enough cells | 0.88 | 4506 | inactive |
| SNRPA (GeneID 6626) | -0.1 | migration z between -2 and 2; enough cells | 0.86 | 5130 | inactive |
| VAX1 (GeneID 11023) | 0.83 | migration z between -2 and 2; enough cells | 1.09 | 6285 | inactive |
| SH3BGRL3 (GeneID 83442) | -0.66 | migration z between -2 and 2; enough cells | 0.72 | 4814 | inactive |
| PTCH2 (GeneID 8643) | -1.15 | migration z between -2 and 2; enough cells | 0.58 | 3738 | inactive |
| RPL35 (GeneID 11224) | -1.73 | migration z between -2 and 2; enough cells | 0.44 | 4428 | inactive |
| PXT1 (GeneID 222659) | -1.2 | migration z between -2 and 2; enough cells | 0.57 | 4955 | inactive |
| KDELR1 (GeneID 10945) | 0 | migration z between -2 and 2; enough cells | 0.8 | 5712 | inactive |
| KCTD4 (GeneID 386618) | 0.13 | migration z between -2 and 2; enough cells | 0.83 | 5618 | inactive |
| TJP3 (GeneID 27134) | 0.13 | migration z between -2 and 2; enough cells | 0.92 | 6798 | inactive |
| MICOS10 (GeneID 440574) | -0.3 | migration z between -2 and 2; enough cells | 0.81 | 3558 | inactive |
| SOHLH1 (GeneID 402381) | -0.28 | migration z between -2 and 2; enough cells | 0.82 | 6406 | inactive |
| RALBP1 (GeneID 10928) | 0.13 | migration z between -2 and 2; enough cells | 0.83 | 5130 | inactive |
| DTX3 (GeneID 196403) | -0.94 | migration z between -2 and 2; enough cells | 0.62 | 4579 | inactive |
| TOMM20 (GeneID 9804) | 1.05 | migration z between -2 and 2; enough cells | 1.16 | 6583 | inactive |
| SEPTIN5 (GeneID 5413) | -0.34 | migration z between -2 and 2; enough cells | 0.74 | 4997 | inactive |
| HOXB3 (GeneID 3213) | 0.1 | migration z between -2 and 2; enough cells | 0.82 | 5236 | inactive |
| KLF6 (GeneID 1316) | -1.5 | migration z between -2 and 2; enough cells | 0.52 | 5752 | inactive |
| MAK (GeneID 4117) | -1.5 | migration z between -2 and 2; enough cells | 0.52 | 3977 | inactive |
| NME6 (GeneID 10201) | -0.16 | migration z between -2 and 2; enough cells | 0.78 | 4811 | inactive |
| LSR (GeneID 51599) | -2.62 | migration z below -2; enough cells | 0.3 | 5516 | active |
| CD8B (GeneID 926) | -1.02 | migration z between -2 and 2; enough cells | 0.62 | 6232 | inactive |
| BHLHA15 (GeneID 168620) | 0.15 | migration z between -2 and 2; enough cells | 0.92 | 5967 | inactive |
| TAP2 (GeneID 6891) | 0.83 | migration z between -2 and 2; enough cells | 0.96 | 5540 | inactive |
| ZFP69B (GeneID 65243) | -1.5 | migration z between -2 and 2; enough cells | 0.5 | 5571 | inactive |
| ANAPC10 (GeneID 10393) | -0.31 | migration z between -2 and 2; enough cells | 0.74 | 6493 | inactive |
